Assay results: article doi:10.1101/690172

By UniProt entry, the sequences of proteins in these tests, tags left out.
UniProt Q9JHU4: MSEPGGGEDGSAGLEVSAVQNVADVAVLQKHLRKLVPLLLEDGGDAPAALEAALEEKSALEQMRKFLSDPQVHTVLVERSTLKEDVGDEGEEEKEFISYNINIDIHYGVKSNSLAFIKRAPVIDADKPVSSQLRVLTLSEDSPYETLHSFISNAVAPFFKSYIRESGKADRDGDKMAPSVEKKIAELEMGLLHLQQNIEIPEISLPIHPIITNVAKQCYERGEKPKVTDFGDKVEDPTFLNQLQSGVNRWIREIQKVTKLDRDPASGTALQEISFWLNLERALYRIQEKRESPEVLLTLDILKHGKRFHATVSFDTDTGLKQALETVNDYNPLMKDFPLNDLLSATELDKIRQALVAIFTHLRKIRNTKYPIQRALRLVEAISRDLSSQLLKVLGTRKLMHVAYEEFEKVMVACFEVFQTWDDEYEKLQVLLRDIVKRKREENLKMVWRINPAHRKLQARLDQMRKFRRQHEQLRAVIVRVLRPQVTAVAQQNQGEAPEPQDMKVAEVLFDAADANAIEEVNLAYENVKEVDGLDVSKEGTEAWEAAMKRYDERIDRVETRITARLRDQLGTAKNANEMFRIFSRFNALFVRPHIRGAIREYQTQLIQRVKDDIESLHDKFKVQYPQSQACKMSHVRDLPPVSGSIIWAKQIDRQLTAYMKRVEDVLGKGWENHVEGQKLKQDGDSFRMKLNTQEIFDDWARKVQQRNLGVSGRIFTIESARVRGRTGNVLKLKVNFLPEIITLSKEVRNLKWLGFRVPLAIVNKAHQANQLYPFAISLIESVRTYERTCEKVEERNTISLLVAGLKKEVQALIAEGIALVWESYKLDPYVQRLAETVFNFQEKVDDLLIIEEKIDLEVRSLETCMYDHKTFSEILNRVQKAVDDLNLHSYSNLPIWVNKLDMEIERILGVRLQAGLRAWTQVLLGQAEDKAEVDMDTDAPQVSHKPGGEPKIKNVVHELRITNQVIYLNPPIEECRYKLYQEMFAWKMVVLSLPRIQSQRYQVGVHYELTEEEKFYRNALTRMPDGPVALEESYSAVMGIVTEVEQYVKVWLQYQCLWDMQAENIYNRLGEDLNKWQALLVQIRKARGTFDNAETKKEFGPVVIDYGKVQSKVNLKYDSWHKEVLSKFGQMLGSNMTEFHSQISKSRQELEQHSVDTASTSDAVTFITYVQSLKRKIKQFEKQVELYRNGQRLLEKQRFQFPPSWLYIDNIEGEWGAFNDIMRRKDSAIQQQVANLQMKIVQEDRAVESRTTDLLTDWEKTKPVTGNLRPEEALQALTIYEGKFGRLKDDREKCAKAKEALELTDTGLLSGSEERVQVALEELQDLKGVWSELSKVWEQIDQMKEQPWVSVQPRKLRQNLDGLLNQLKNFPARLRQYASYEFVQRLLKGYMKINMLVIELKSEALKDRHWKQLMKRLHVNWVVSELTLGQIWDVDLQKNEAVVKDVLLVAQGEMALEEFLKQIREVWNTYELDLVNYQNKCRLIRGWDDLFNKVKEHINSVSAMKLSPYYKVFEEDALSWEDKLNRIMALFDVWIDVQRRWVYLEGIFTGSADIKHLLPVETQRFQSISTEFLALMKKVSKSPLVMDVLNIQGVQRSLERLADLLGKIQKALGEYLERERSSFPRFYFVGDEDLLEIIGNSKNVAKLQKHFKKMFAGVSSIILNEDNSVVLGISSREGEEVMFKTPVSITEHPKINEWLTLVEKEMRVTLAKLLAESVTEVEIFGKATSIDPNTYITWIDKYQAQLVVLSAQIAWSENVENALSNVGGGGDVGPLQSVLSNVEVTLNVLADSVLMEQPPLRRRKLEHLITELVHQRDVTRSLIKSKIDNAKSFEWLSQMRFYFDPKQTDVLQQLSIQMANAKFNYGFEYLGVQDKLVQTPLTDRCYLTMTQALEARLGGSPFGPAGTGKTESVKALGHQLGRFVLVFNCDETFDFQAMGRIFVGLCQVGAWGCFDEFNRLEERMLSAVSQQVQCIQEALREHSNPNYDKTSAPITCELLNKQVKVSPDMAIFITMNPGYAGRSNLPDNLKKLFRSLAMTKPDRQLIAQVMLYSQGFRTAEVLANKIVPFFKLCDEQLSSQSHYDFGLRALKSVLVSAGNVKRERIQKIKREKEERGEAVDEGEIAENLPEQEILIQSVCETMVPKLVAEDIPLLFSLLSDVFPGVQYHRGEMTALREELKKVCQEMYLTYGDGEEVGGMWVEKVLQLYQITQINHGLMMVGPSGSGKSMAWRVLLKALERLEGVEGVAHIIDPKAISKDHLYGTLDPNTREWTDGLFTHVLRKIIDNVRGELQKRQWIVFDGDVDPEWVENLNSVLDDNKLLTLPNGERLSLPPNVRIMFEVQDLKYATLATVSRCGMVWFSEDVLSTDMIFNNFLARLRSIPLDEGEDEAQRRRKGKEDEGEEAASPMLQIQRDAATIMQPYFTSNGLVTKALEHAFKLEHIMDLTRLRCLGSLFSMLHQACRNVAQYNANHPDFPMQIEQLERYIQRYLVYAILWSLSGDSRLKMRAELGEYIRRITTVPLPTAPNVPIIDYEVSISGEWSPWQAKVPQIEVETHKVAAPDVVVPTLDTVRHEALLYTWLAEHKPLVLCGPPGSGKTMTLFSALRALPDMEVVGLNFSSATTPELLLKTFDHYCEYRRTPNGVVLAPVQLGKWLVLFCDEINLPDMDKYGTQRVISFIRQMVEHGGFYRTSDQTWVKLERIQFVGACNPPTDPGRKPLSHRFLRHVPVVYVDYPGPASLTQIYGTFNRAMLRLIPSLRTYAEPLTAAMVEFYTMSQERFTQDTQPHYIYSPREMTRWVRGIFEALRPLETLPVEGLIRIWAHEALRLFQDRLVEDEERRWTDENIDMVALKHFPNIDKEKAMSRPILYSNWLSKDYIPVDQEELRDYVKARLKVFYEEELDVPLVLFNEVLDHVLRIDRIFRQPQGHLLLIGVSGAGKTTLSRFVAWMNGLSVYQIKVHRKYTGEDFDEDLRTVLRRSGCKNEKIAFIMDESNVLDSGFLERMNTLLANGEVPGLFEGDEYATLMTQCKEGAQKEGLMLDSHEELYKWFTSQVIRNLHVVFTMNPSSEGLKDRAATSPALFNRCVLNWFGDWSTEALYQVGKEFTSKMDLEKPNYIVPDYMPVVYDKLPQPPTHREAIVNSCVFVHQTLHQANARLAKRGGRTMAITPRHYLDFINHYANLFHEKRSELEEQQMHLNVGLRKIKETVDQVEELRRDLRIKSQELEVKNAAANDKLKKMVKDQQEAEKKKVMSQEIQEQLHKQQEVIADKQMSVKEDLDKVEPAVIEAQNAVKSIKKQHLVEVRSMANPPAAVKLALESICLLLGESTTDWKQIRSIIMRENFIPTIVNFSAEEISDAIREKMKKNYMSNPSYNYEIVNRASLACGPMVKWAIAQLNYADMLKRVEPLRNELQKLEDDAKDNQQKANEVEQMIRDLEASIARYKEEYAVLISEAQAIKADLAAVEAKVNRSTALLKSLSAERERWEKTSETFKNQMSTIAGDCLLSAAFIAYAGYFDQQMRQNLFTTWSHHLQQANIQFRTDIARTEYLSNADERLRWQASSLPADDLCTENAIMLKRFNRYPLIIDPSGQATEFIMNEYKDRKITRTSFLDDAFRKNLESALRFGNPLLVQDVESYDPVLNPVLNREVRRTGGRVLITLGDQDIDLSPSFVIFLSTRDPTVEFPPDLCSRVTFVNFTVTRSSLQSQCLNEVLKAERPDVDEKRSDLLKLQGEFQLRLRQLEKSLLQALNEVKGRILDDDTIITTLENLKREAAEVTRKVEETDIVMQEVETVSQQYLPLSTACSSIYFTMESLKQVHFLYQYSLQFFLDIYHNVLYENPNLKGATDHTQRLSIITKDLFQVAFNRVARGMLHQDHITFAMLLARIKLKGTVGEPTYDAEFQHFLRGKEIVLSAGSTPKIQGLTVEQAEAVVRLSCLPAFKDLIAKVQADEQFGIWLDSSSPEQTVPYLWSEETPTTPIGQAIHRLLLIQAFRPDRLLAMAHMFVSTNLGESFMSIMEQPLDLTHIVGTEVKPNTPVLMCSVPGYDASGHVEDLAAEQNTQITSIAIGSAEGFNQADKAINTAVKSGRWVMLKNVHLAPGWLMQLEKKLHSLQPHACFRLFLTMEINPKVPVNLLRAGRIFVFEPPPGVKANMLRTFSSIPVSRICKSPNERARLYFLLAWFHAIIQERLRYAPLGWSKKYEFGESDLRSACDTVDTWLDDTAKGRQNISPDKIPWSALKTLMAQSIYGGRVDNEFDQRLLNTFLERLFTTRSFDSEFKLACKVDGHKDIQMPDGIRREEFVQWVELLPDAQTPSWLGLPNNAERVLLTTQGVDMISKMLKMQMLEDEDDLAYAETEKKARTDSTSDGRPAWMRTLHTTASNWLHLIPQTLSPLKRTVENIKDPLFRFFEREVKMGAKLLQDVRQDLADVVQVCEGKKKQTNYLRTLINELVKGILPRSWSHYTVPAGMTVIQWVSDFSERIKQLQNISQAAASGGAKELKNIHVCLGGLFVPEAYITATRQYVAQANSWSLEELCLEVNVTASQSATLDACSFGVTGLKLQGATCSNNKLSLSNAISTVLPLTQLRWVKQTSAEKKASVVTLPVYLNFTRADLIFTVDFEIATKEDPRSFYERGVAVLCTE

Target: T1, Cyclin-dependent-like kinase 5 (Cdkl5), mouse, endogenous (mouse (endogenous in murine cortex and DRG)) (UniProt Q3UTQ8)
T1 sequence: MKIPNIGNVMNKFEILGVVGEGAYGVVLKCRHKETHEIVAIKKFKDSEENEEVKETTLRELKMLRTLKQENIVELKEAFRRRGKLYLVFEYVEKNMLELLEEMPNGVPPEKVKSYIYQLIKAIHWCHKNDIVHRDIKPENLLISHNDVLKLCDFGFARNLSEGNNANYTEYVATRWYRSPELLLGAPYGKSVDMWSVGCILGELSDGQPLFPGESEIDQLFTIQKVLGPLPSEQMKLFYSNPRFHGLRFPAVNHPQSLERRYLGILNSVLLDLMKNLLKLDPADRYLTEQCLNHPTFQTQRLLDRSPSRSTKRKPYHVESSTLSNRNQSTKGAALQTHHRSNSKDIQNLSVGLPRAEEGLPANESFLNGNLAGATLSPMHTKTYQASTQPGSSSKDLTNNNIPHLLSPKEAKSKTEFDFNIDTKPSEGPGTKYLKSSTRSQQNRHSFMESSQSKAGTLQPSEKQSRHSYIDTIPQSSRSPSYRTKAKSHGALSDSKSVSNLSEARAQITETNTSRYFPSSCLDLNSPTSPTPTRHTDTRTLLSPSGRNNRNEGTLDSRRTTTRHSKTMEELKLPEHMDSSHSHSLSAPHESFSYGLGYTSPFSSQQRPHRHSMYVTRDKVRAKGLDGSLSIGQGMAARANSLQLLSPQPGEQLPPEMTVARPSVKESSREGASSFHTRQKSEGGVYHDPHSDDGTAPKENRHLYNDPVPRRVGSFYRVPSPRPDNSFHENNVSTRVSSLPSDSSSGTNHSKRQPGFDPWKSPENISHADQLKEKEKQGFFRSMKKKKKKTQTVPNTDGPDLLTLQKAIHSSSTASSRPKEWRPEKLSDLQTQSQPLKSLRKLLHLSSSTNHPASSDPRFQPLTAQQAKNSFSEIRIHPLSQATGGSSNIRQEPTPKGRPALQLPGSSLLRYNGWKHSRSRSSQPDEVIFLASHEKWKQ
Test: affinity purification with mass spectrometry

Row | Substance | binding
1 | Myh10, mouse, endogenous (from UniProt Q61879 1-1976) | binds
2 | Dynch1h1, mouse, endogenous (from UniProt Q9JHU4 1-4644) | binds

These are yes or no findings as the source states them, for the method shown. In cells and extracts the contact can be indirect. These calls come from enrichment with a bait or labelling near it, and not all partners need be listed.
